Primary screen of a compound library

Chains of the proteins cited; added tags and fusions are not shown.
UniProt E9BF75, entry or part of it: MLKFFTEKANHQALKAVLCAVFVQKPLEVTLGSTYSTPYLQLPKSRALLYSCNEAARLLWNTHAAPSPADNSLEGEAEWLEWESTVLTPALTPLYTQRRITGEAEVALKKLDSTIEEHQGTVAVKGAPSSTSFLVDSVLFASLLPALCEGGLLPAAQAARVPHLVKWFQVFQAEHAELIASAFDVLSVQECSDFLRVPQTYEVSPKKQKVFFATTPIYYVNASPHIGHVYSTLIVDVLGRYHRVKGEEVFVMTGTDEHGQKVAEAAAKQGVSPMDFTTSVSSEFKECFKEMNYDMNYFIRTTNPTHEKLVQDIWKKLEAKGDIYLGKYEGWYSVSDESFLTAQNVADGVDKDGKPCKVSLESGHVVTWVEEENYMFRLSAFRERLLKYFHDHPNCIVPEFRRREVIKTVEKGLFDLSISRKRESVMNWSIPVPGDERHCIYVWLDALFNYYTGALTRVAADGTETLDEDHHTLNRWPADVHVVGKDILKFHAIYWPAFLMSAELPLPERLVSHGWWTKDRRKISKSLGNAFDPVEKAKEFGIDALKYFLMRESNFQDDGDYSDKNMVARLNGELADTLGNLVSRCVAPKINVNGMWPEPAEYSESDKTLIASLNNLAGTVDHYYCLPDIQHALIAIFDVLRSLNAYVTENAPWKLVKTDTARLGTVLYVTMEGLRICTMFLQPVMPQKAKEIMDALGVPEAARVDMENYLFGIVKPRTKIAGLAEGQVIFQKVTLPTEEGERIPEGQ

Measurements from “University of Dundee, Small-Polar-MMV Screening Library” (2021), ChEMBL document CHEMBL3988442.

A: 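Methionyl-tRNA synthetase (putative), Leishmania donovani (UniProt E9BF75). Primary screen of methionyl-tRNA synthetase; the read-out is not stated. The test concentration is not given. The values are filed as inhibition. Size under these conditions: about 68,000 compounds, about 24 of them at 50% or above in at least one test.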
B: 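Assay on Mycobacterium tuberculosis, filed only as a heat shock assay from Cornell; the read-out is not stated. The concentration is filed as 10 mM, unlikely as a test dose, so the dose is not known. Direction is inferred from retests: higher values go with stronger inhibition. Of about 69,000 compounds tested this way, about 930 (1.4%) reached 50% or more in at least one test.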

All values are in %. The record does not define 0% and 100%; most values in the screen are far below 50% and negative numbers occur (in some assays of this library far below -100). This is an unselected part of the compounds tested.

SMILES: CCC(Nc1nnnn1-c1ccccc1)C(=O)Nc1ccccc1C (centres unmarked)
A: 9.42%
B: 8.633%

SMILES: CCc1cc(N[C@H]2CCC[C@H]2CO)n2nccc2n1
A: 4.897%
B: -17.58%

SMILES: Cc1nc(C)n(C2CCCN(C(=O)CCOCC(C)C)C2)n1 (centres unmarked)
A: 7.123%
B: -15.12%

SMILES: [H][C@@]12CN(Cc3nccs3)C[C@H](C(=O)N3CCCC3)[C@]1([H])CCO2
B: -30.12%

SMILES: CCCn1nc2c(cc1=O)CN(C(C)C(=O)Nc1nccs1)CC2 (centres unmarked)
A: 24.31%
B: 5.942%

SMILES: COCc1cccc(C(=O)N2CCCCC2c2nccs2)c1 (centres unmarked)
A: 10.46%
B: 6.576%

SMILES: CS(=O)(=O)N1CCC(NC(=O)COc2ccc(Br)cc2Cl)CC1
A: 7.104%
B: -7.972%

SMILES: O=C(c1ccsc1)N1CCN2C[C@H](OCc3ccccn3)C[C@H]2C1
A: 12.44%

SMILES: [H][C@@]12CN(C(=O)N(C)C)C[C@]1([H])C(=O)N(C)C21CCN(C(=O)NC(C)C)CC1
B: -1.686%

SMILES: CN(Cc1ccco1)C1CCC12CCN(C(=O)N1CCCC1)CC2.O=C(O)C(F)(F)F (centres unmarked)
B: -1.277%

SMILES: Cc1noc([C@]23COC[C@H]2CN(C(=O)CN(C)C)C3)n1
A: 16.62%

SMILES: O=C(c1ccc(-n2cnnc2)cc1Cl)N1CCCC(O)(CO)CC1 (centres unmarked)
A: 6.015%
B: -48.74%

SMILES: Cc1cc2nc(C(C)C)cc(NCCc3cccn3C)n2n1
A: 23.12%
B: 51.31%

SMILES: CC(C)Oc1ccc(C(=O)Cn2cnnc2[S+](C)[O-])cc1 (centres unmarked)
A: 11.39%
B: 17.53%

SMILES: O=C(Nc1ccc(N2CCCC2)nc1)N1CCc2sccc2C1
A: 10.48%
B: 0.2913%

SMILES: CCC(=O)NCC(Cc1cccc(F)c1)n1cccc1 (centres unmarked)
A: 12.95%
B: -3.395%

SMILES: [H][C@@]12CCC(=O)N(CCCOC)[C@]1([H])CCN(c1ccc(C(N)=O)cn1)C2
B: -3.808%

SMILES: COc1cnc(N2CCCN(Cc3ccc(F)cc3)CC2)nc1
A: 7.639%
B: -4.039%

SMILES: CC(C)CN1CC2(CCN(C(=O)C3CSC(C)(C)C(=O)N3)CC2)CC1=O (centres unmarked)
A: -5.514%
B: 1.225%

SMILES: CCN(CC)Cc1cn2c(n1)CN(C(=O)c1cnccn1)CC2
A: 14.48%

SMILES: Cc1cc(C)nc(Nc2cccc(C3CCCN(S(C)(=O)=O)C3)n2)n1 (centres unmarked)
A: 0%
B: -40.88%

SMILES: CN(C)CC(=O)N1CCC2(CC1)CN(c1ncccn1)CCO2.O=C(O)C(F)(F)F
B: -13.03%

SMILES: CN(C)c1cc(CNC(=O)c2cc(Cl)ccn2)ccn1
A: 16.57%
B: 3.651%

SMILES: O=C(O)C(F)(F)F.O=C1CC[C@]2(CC[C@@H](NCc3ccoc3)CC2)N1
B: -12.43%

SMILES: [H][C@]12CC[C@]([H])(CN(C(=O)N(C)C)C1)N(C(=O)c1cccnc1SC)C2
B: -1.597%

SMILES: [H][C@]12CC[C@]([H])(CN(Cc3ccccc3)C1)N(C(=O)CNC(N)=O)C2
B: 3.94%

SMILES: O=C(O)C(F)(F)F.O=C(O)C(F)(F)F.[H][C@]12C[C@@H](CN3CCCC3)N(C)[C@@]1([H])CCN(C(=O)c1occc1C)C2
B: -2.332%

SMILES: CC(C)(C#N)CCCS(=O)(=O)c1nccn1-c1cccc(F)c1
A: 6.129%
B: -39.43%

SMILES: Cn1cc(NC(=O)c2cccc3cccnc23)ccc1=O
A: 15.68%
B: -12.46%

SMILES: COCC(=O)NC(C)c1cccc(Br)c1 (centres unmarked)
A: 15.85%
B: 23.12%

SMILES: Cc1noc(C)c1CN1CCc2ncnc(-c3ccncc3)c2CC1.O=C(O)C(F)(F)F.O=C(O)C(F)(F)F
B: 7.897%

SMILES: COc1c(CNCc2ccc(C(=O)N(C)C(C)C)cc2)c(C)nn1C
A: 13.11%
B: 6.653%

SMILES: COc1c(CNCCC(=O)Nc2cccc(C)n2)c(C)nn1C
A: 5.072%
B: 13.63%

SMILES: CN(C)c1cc2c(nn1)CCN(C(=O)Cc1ccc3c(c1)CCC3)C2
A: 21.7%
B: 16.8%

SMILES: CCC(C)NC(=O)Cc1c(C)nc2c(c1C)c(=O)[nH]n2C (centres unmarked)
A: 13.39%
B: -2.819%

Repeated from the top, 3 entries:

SMILES,A,B
CCC(Nc1nnnn1-c1ccccc1)C(=O)Nc1ccccc1C (centres unmarked),9.42%,8.633%
CCc1cc(N[C@H]2CCC[C@H]2CO)n2nccc2n1,4.897%,-17.58%
Cc1nc(C)n(C2CCCN(C(=O)CCOCC(C)C)C2)n1 (centres unmarked),7.123%,-15.12%